The text below walks through data of US12139742B2, “Devices, systems, and methods for preparing a standardized inoculum for antimicrobial susceptibility testing” (Avails Medical, Inc., priority 2020, dated 2024).

For data set [1], the system named is 23 different positive blood culture (PBC) samples comprising seven different species of bacteria. Description: Kirby-Bauer disk diffusion AST of 0.5 McFarland inocula (present method vs traditional subculture). It is filed as cell-based. Particulars: categorical agreement. The text has this: The standardized inoculum 1726 (e.g., the 0.5 McFarland inoculum) can then be used directly for antimicrobial susceptibility testing using manual disk diffusion or diluted further for automated AST platforms. For example, the standardized inoculum 1726 prepared using the method 1700 and system 1702 disclosed herein can be subjected to manual Kirby-Bauer disk diffusion AST or an automated AST platform such as the VITEK®2 platform.
(§1) Both the present method 1700 and traditional microbial subculturing techniques were used to prepare standardized 0.5 McFarland inocula for AST using Kirby-Bauer disk diffusion (see Table 1) and the automated VITEK2 GN81 AST platform (see Table 2).
Two sets of standardized 0.5 McFarland inocula were prepared from 23 different positive blood culture (PBC) samples comprising seven different species of bacteria. The 23 PBC samples included six samples of Escherichia coli (ECo), two samples of Enterobacter cloacae (ECl), three samples of Klebsiella pneumoniae (KPn), four samples of Klebsiella oxytoca (KOx), two samples of Citrobacter freundii (CFr), four samples of Serratia marcescens (SMa), and two samples of Klebsiella aerogenes (KAe). […]
In total, 296 minimum inhibitory concentrations (MICs) from the VITEK®2 GN81 platform and 224 zone sizes on disk diffusion were evaluated.

The test system is the same in data set [2]. Description: VITEK 2 GN81 automated AST of 0.5 McFarland inocula (present method vs traditional subculture). It is filed as cell-based. The settings on record: for % CA: categorical agreement; for % EA: essential agreement. As for the experimental part: as §1
Two sets of standardized 0.5 McFarland inocula were prepared from 23 different positive blood culture (PBC) samples comprising seven different species of bacteria. The 23 PBC samples included six samples of Escherichia coli (ECo), two samples of Enterobacter cloacae (ECl), three samples of Klebsiella pneumoniae (KPn), four samples of Klebsiella oxytoca (KOx), two samples of Citrobacter freundii (CFr), four samples of Serratia marcescens (SMa), and two samples of Klebsiella aerogenes (KAe).
The first set was prepared using the presently disclosed method 1700 (sample preparation time: between 60 minutes and 180 minutes) and the second set was prepared using traditional microbial subculturing techniques (sample preparation time: between 18 hours to 24 hours). The testing was conducted using the automated VITEK®2 GN81 AST platform (see Table 1) and manual Kirby-Bauer disk diffusion (see Table 2).

Take `CC1(C)S[C@@H]2[C@H](NC(=O)[C@H](N)c3ccccc3)C(=O)N2[C@H]1C(=O)O` [Ampicillin]: the “% CA” value in data set [1] was 100%. In data set [2], the “% CA” value came to 100% and the “% EA” value was 100%.
Consider `CO/N=C(\C(=O)N[C@@H]1C(=O)N2C(C(=O)O)=C(CSc3nc(=O)c(=O)[nH]n3C)CS[C@H]12)c1csc(N)n1` [Ceftriaxone], for which, in data set [1], the “% CA” value is given as 95.7%. Besides, in data set [2], the “% CA” value was found to be 95.7% and the “% EA” value is reported as 91.3%.
